# Test results published in the supplement of paper PMC10849652.
# Chains of the proteins cited; added tags and fusions are not shown. Lines headed by an entry give the natural chain unless they say otherwise; changes in a name come on top.
# UniProt Q5SW79: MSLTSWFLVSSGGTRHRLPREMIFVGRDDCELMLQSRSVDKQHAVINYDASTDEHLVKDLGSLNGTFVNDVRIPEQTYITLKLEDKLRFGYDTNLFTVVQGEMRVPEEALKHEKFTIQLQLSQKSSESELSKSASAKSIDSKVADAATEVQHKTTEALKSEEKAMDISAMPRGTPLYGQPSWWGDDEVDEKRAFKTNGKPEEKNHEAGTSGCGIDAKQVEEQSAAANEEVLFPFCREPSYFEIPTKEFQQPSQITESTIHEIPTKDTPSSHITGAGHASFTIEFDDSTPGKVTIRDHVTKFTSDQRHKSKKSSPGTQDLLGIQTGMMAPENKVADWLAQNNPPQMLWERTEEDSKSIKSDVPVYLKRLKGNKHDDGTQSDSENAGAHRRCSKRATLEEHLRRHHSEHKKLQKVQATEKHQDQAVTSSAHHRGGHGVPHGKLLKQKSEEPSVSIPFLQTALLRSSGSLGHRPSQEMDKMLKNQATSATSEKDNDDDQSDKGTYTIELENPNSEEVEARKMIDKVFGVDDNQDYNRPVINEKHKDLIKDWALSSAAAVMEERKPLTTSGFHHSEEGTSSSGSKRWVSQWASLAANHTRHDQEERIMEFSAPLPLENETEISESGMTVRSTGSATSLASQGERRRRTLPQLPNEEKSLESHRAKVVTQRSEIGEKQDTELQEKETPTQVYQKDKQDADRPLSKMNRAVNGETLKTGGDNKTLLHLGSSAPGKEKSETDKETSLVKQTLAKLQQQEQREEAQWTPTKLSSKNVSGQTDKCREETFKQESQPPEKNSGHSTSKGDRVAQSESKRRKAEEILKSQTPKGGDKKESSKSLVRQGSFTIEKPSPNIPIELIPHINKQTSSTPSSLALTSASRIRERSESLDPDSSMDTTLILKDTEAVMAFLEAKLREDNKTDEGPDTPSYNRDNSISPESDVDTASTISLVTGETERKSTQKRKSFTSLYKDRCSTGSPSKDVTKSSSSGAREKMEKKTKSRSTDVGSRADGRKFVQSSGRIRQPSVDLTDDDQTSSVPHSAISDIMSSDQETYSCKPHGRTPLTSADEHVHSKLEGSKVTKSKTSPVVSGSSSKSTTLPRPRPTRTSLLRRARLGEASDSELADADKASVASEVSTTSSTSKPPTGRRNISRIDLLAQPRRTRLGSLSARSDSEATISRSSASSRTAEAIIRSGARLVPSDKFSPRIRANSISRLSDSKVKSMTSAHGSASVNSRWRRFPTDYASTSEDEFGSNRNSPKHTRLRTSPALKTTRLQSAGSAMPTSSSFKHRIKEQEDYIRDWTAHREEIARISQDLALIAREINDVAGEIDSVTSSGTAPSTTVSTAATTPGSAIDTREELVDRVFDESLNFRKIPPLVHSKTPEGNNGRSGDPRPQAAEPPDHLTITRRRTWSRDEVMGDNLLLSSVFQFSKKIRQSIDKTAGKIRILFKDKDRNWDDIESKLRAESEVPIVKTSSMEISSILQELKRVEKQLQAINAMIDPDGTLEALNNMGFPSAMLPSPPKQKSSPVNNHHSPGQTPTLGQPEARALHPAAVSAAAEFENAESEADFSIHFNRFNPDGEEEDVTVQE
# UniProt O00311: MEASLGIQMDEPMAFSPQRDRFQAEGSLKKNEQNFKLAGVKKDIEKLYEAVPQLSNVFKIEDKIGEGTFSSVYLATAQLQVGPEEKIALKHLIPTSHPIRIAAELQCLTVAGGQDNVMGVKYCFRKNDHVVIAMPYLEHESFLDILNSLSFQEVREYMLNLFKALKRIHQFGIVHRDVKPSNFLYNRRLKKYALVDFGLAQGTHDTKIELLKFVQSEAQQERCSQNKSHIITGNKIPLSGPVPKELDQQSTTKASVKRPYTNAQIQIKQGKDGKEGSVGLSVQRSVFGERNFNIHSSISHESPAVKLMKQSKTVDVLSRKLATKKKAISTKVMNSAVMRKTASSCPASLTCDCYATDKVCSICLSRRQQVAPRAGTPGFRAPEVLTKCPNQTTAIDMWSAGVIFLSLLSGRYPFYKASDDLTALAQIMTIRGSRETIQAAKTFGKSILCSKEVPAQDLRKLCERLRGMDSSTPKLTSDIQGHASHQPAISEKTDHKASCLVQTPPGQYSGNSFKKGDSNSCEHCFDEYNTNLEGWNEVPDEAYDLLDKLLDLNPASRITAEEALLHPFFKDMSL
# UniProt O95674: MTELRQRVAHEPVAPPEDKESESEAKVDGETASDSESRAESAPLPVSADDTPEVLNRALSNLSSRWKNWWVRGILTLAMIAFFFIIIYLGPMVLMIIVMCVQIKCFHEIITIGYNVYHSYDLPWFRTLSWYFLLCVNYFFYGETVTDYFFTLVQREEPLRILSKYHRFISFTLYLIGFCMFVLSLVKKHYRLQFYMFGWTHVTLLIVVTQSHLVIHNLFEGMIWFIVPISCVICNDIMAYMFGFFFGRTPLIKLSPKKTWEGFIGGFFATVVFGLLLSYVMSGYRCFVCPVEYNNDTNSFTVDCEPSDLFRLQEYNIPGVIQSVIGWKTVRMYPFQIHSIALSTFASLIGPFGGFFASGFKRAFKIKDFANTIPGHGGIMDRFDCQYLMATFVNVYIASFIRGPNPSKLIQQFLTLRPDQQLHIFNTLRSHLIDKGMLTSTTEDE
# UniProt P21127: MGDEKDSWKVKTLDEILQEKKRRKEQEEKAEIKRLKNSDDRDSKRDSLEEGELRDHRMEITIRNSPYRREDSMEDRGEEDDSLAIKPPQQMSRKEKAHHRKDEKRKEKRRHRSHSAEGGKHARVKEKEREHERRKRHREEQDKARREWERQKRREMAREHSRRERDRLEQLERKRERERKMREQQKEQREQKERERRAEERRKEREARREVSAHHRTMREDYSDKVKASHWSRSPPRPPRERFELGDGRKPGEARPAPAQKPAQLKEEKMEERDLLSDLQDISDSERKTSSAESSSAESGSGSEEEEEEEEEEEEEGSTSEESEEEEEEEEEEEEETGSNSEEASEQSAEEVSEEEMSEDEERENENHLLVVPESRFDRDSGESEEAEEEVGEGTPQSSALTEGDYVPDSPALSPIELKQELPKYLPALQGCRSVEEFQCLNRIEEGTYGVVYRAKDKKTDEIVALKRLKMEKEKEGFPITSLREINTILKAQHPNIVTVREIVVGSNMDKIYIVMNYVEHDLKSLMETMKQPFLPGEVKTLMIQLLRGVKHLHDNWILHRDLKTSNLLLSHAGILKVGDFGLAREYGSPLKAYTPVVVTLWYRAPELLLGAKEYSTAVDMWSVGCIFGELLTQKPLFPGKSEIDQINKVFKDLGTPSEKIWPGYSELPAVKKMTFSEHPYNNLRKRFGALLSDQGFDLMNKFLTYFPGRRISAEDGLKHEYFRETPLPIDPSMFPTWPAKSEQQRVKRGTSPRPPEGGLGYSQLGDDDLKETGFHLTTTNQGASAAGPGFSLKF
# UniProt Q8IW35: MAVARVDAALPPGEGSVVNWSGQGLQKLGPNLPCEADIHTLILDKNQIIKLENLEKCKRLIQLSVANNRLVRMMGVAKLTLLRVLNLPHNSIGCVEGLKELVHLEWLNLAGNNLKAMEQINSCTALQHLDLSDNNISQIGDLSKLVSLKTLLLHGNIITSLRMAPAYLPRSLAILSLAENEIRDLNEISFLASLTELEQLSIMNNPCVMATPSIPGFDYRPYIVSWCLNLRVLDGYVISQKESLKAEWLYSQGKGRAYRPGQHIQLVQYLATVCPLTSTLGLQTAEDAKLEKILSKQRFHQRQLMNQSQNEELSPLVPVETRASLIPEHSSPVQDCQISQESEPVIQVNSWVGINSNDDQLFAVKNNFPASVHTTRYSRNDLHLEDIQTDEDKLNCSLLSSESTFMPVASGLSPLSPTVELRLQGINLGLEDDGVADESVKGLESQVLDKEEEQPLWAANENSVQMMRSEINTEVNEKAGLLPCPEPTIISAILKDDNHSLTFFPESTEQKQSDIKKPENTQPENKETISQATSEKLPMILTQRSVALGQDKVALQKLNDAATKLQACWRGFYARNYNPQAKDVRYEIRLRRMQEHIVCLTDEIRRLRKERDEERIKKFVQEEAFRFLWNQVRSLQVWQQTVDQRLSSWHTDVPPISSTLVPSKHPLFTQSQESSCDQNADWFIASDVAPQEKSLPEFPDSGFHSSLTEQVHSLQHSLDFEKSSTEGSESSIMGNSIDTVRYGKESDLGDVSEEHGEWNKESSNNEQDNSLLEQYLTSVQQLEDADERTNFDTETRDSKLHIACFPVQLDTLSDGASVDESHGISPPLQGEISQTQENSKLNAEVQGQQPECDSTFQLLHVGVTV
# UniProt Q9NRR3: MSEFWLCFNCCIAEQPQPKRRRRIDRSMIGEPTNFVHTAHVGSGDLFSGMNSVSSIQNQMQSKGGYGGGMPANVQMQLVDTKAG
# UniProt Q99459: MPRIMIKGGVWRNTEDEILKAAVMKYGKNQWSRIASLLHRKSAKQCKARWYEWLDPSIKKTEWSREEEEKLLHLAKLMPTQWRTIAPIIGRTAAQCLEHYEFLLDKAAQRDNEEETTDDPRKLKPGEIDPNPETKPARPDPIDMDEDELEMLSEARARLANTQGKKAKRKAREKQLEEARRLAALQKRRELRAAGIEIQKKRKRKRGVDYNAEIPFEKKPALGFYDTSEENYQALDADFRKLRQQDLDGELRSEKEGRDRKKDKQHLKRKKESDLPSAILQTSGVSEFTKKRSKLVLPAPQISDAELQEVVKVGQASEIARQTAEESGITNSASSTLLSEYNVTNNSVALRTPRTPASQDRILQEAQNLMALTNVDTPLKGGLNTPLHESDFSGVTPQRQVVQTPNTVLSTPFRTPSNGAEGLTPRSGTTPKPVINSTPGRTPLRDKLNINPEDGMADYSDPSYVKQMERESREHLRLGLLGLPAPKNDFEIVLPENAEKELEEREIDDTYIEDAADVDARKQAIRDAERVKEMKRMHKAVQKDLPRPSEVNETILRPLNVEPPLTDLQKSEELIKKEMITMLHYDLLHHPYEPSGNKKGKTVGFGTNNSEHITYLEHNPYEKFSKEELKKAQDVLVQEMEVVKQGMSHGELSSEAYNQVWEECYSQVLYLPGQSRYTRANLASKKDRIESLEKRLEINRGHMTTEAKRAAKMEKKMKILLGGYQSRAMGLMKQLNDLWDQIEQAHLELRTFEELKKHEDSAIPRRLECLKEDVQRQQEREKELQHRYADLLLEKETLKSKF
# UniProt Q66GS9: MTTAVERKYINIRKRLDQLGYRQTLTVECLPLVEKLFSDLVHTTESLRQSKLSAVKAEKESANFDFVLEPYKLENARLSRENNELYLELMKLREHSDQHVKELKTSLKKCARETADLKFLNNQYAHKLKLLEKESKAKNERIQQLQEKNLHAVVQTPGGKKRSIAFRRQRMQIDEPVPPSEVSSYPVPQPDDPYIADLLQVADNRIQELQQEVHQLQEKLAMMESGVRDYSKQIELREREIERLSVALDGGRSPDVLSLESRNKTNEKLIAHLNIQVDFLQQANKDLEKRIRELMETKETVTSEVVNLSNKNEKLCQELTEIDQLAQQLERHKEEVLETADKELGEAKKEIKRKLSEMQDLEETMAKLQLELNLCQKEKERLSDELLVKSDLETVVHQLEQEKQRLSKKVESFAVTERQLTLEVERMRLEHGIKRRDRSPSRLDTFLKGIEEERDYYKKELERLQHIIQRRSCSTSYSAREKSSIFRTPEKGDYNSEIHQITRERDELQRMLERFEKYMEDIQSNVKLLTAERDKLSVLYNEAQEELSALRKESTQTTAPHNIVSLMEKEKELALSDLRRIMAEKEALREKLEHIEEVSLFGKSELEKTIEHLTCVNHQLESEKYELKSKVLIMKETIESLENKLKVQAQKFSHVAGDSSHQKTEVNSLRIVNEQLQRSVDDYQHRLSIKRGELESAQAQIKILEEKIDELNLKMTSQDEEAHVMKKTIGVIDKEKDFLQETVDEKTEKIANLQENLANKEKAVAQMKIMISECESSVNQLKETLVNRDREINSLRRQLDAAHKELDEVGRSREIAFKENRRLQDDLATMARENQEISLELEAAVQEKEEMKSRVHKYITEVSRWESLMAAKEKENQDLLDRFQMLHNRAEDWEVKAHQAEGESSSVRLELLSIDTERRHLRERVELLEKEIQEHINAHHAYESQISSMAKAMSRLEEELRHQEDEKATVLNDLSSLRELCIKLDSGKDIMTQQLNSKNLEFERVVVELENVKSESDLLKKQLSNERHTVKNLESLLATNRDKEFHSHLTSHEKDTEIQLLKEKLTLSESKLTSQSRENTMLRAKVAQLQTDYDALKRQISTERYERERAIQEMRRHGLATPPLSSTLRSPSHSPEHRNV
# UniProt O15182: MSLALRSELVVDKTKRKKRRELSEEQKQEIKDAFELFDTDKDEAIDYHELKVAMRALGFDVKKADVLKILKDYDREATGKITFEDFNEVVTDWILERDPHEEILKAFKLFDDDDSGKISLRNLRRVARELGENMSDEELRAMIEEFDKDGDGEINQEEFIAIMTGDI
# Some of the results follow.
# Tests used:
# Test in all cases: log2 fold change, soluble protein after heating vs DMSO (PISA); higher = thermal stabilisation; K562 lysate, 10 uM; active = over 0.2 and 3.5 SD of the protein, either way, in both replicates (recomputed)
# vemurafenib = compound: CCCS(=O)(=O)Nc1ccc(F)c(C(=O)c2c[nH]c3ncc(-c4ccc(Cl)cc4)cc23)c1F [vemurafenib]
# In short: (§1)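 K562 pellets were dounce-homogenised in PBS pH 7.4 with 1 mM MgCl2, and the crude extract at 1 mg/mL protein was treated with 10 μM compound for 30 min. Aliquots were heated for 3 min across 48°C-58°C, pooled, and brought to 0.5% NP-40 at 4°C; soluble protein was the supernatant after 21,000xg for 90 min. Soluble protein was quantified by TMTpro 16plex LC-MS/MS with channel sums equalised, and reported as log2 fold change in thermal stability against DMSO controls, with values from duplicates.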
# [1] = compound: CCCS(=O)(=O)Nc1ccc(F)c(C(=O)c2c[nH]c3ncc(Cl)cc23)c1F
# In short: as §1
# barasertib = compound: CCN(CCCOc1ccc2c(Nc3cc(CC(=O)Nc4cccc(F)c4)[nH]n3)ncnc2c1)CCOP(=O)(O)O [barasertib]
# In short: as §1
# [2] = compound: CC[C@@H]1C(=O)N(C)c2cnc(Nc3ccc(C(=O)NC4CCN(C)CC4)cc3OC)nc2N1C1CCCC1
# In short: as §1
# volasertib = compound: CC[C@@H]1C(=O)N(C)c2cnc(Nc3ccc(C(=O)N[C@H]4CC[C@H](N5CCN(CC6CC6)CC5)CC4)cc3OC)nc2N1C(C)C [volasertib]
# In short: as §1
# [3] = compound: CCn1c(C(=O)N(C2CC2)C2CC2)cc2c3c(ncn3C)c(Nc3cc(C)n(C)n3)nc21
# In short: as §1
# [4] = compound: CCn1cc(-c2ccnc3[nH]c(-c4cccc(CN(C)C)c4)cc23)c(-c2ccc(NC(=O)N(C)C)cc2)n1
# In short: as §1
# [5] = compound: CN1CCC(CNc2ccc3ncc(-c4cccc(OC(F)(F)F)c4)n3n2)CC1
# In short: as §1
# saracatinib = compound: CN1CCN(CCOc2cc(OC3CCOCC3)c3c(Nc4c(Cl)ccc5c4OCO5)ncnc3c2)CC1 [saracatinib]
# In short: as §1
# sotrastaurin = compound: CN1CCN(c2nc(C3=C(c4c[nH]c5ccccc45)C(=O)NC3=O)c3ccccc3n2)CC1 [sotrastaurin]
# In short: as §1
# alvocidib = compound: CN1CC[C@H](c2c(O)cc(O)c3c(=O)cc(-c4ccccc4Cl)oc23)[C@H](O)C1 [alvocidib]
# In short: as §1
# Tubastatin A = compound: CN1CCc2c(c3ccccc3n2Cc2ccc(C(=O)NO)cc2)C1 [Tubastatin A]
# In short: as §1
# [6] = compound: CNC(=O)C1=CC=CC=C1NC2=NC(=NC=C2Cl)NC3=C(C=C(C=C3)N4CCOCC4)OC
# In short: as §1
# defactinib = compound: CNC(=O)c1ccc(Nc2ncc(C(F)(F)F)c(NCc3nccnc3N(C)S(C)(=O)=O)n2)cc1 [defactinib]
# In short: as §1
# [7] = compound: CNc1nc(-c2ccc3c(N)n[nH]c3c2)cc(N2C[C@@H](C(=O)NC3CCCCC3)CC[C@H]2C)n1
# In short: as §1
# encorafenib = compound: COC(=O)N[C@@H](C)CNc1nccc(-c2cn(C(C)C)nc2-c2cc(Cl)cc(NS(C)(=O)=O)c2F)n1 [encorafenib]
# In short: as §1
# [8] = compound: COC(=O)[C@H](CCSC)NC(=O)C1=C(C=C(C=C1)NC[C@H](CS)N)C2=CC=CC=C2
# In short: as §1
# alisertib = compound: COc1cc(Nc2ncc3c(n2)-c2ccc(Cl)cc2C(c2c(F)cccc2OC)=NC3)ccc1C(=O)O [alisertib]
# In short: as §1
# [9] = compound: COc1cc2nc(-c3cc(F)ccc3O)nc(N[C@@H]3CNC[C@H]3C(C)(C)O)c2cc1OC
# In short: as §1
# gefitinib = compound: COc1cc2ncnc(Nc3ccc(F)c(Cl)c3)c2cc1OCCCN1CCOCC1 [gefitinib]
# In short: as §1
Target,log2 fold change (vemurafenib),log2 fold change [1],log2 fold change (barasertib),log2 fold change [2],log2 fold change (volasertib),log2 fold change [3],log2 fold change [4],log2 fold change [5],log2 fold change (saracatinib),log2 fold change (sotrastaurin),log2 fold change (alvocidib),log2 fold change (Tubastatin A),log2 fold change [6],log2 fold change (defactinib),log2 fold change [7],log2 fold change (encorafenib),log2 fold change [8],log2 fold change (alisertib),log2 fold change [9],log2 fold change (gefitinib)
CEP170 (UniProt Q5SW79),inactive: 0.049,inactive: 0.015,inactive: 0.018,inactive: 0.019,inactive: -0.008,inactive: 0.01,inactive: 0.015,inactive: -0.195,inactive: 0.013,inactive: -0.001,inactive: -0.043,inactive: -0.046,inactive: -0.068,inactive: -0.097,inactive: 0.049,inactive: 0.036,inactive: -0.017,inactive: 0,inactive: -0.002,inactive: -0.035
CDC73 (UniProt Q6P1J9),inactive: 0.064,inactive: -0.002,inactive: 0.016,inactive: -0.027,inactive: -0.028,inactive: 0.012,inactive: 0.056,inactive: -0.109,inactive: 0.014,inactive: 0.031,inactive: 0,inactive: -0.065,inactive: 0.004,inactive: -0.011,inactive: -0.048,inactive: -0.002,inactive: 0.022,inactive: 0.017,inactive: -0.02,inactive: -0.026
CDK16 isoform 2 (UniProt Q00536),inactive: 0.03,inactive: 0.075,inactive: 0.007,inactive: -0.006,inactive: -0.175,inactive: -0.03,inactive: -0.027,inactive: 0.083,inactive: 0.03,inactive: 0.236,–,inactive: 0.029,inactive: 0.05,inactive: 0.285,inactive: 0.106,inactive: 0.04,inactive: -0.024,inactive: -0.014,inactive: 0.008,inactive: -0.026
CEMIP2 (UniProt Q9UHN6),inactive: -0.044,inactive: 0.062,inactive: 0.063,inactive: 0.117,inactive: 0.003,inactive: 0.025,inactive: 0,inactive: 0.039,inactive: 0.042,inactive: -0.004,inactive: -0.072,inactive: 0.045,inactive: 0.066,inactive: 0.086,inactive: 0.033,inactive: -0.03,inactive: -0.091,–,inactive: 0.039,–
CEP350 (UniProt Q5VT06),inactive: -0.03,inactive: -0.009,inactive: 0.03,inactive: 0.008,inactive: -0.009,inactive: 0.041,inactive: 0.104,inactive: -0.025,inactive: 0.019,inactive: 0.051,inactive: -0.034,inactive: -0.077,inactive: 0.007,inactive: -0.029,inactive: -0.045,inactive: 0.049,inactive: -0.026,inactive: -0.002,inactive: -0.026,inactive: 0.078
CDC7 (UniProt O00311),inactive: 0.065,inactive: 0.073,inactive: -0.005,inactive: 0.039,inactive: -0.097,inactive: -0.003,inactive: -0.01,inactive: -0.073,inactive: 0.004,inactive: 0.036,inactive: -0.081,inactive: -0.112,inactive: 0.077,inactive: 0.007,inactive: 0.042,inactive: 0.011,inactive: 0.078,inactive: -0.059,inactive: -0.04,inactive: -0.036
CDCA2 (UniProt Q69YH5),inactive: 0.013,inactive: -0.088,inactive: -0.042,inactive: -0.01,inactive: 0.042,inactive: -0.096,inactive: 0.078,inactive: -0.079,inactive: 0.012,inactive: -0.019,inactive: -0.006,inactive: 0.052,inactive: 0.025,inactive: -0.012,inactive: 0.135,inactive: 0.075,inactive: 0.052,inactive: -0.041,inactive: 0.179,inactive: 0.096
CDS2 (UniProt O95674),inactive: 0.09,inactive: 0.041,inactive: 0.027,inactive: 0.026,inactive: 0.005,inactive: -0.006,inactive: 0.015,inactive: 0.004,inactive: -0.053,inactive: 0.037,inactive: -0.037,inactive: 0.116,inactive: -0.036,inactive: 0.04,inactive: -0.021,inactive: 0.027,inactive: 0.007,inactive: 0.012,inactive: 0.033,inactive: 0
CEP131 (UniProt Q9UPN4),inactive: -0.145,inactive: 0.108,inactive: -0.122,inactive: 0.108,inactive: 0.009,inactive: -0.075,inactive: -0.031,inactive: 0.058,inactive: 0.011,inactive: 0.023,inactive: -0.022,inactive: 0.005,inactive: -0.133,inactive: 0.005,inactive: 0.071,inactive: 0.127,inactive: -0.061,inactive: -0.033,inactive: -0.035,inactive: 0.019
CDK11B (UniProt P21127),inactive: 0.025,inactive: 0.002,inactive: 0.022,inactive: -0.087,inactive: -0.057,inactive: 0.029,inactive: -0.047,inactive: -0.048,inactive: -0.024,inactive: 0.01,active: 0.273,inactive: -0.081,inactive: 0.012,inactive: -0.013,inactive: 0.019,inactive: -0.012,inactive: 0.108,inactive: 0.012,inactive: -0.036,inactive: -0.016
CEP97 (UniProt Q8IW35),inactive: 0.023,inactive: -0.042,inactive: 0.074,inactive: -0.031,inactive: -0.003,inactive: -0.002,inactive: -0.026,inactive: -0.011,inactive: 0.033,inactive: 0.026,inactive: -0.057,inactive: -0.083,inactive: -0.026,inactive: -0.024,inactive: -0.027,inactive: -0.009,inactive: 0.068,inactive: 0.056,inactive: -0.022,inactive: 0.022
CDC42SE2 (UniProt Q9NRR3),inactive: -0.061,inactive: -0.002,inactive: -0.036,inactive: 0.009,inactive: 0.058,inactive: -0.037,inactive: 0.009,inactive: -0.112,inactive: -0.028,inactive: -0.024,inactive: -0.055,inactive: 0.065,inactive: 0.04,inactive: 0.003,inactive: 0.019,inactive: 0.022,inactive: 0.026,inactive: 0.096,inactive: -0.094,inactive: -0.14
CDC5L (UniProt Q99459),inactive: -0.011,inactive: 0.011,inactive: 0.002,inactive: -0.07,inactive: -0.037,inactive: 0.015,inactive: 0.051,inactive: -0.096,inactive: 0.012,inactive: 0.018,inactive: 0.01,inactive: -0.05,inactive: 0.005,inactive: 0.003,inactive: -0.017,inactive: 0.004,inactive: 0.02,inactive: 0.01,inactive: -0.007,inactive: -0.006
CEP135 (UniProt Q66GS9),inactive: -0.02,inactive: 0.049,inactive: 0.07,inactive: -0.076,inactive: 0.004,inactive: -0.02,inactive: -0.126,inactive: 0.048,inactive: 0.035,inactive: 0.007,inactive: -0.031,inactive: -0.014,inactive: 0.101,inactive: 0.008,inactive: -0.037,inactive: 0.009,inactive: 0.032,inactive: -0.02,inactive: 0.029,inactive: -0.072
CDK6 (UniProt Q00534),inactive: -0.025,inactive: -0.002,inactive: -0.001,inactive: -0.05,inactive: 0.008,inactive: -0.006,inactive: -0.011,inactive: -0.004,inactive: -0.013,inactive: 0.009,inactive: 0.086,inactive: 0.003,inactive: -0.018,inactive: -0.008,inactive: -0.013,inactive: 0.009,inactive: 0.025,inactive: -0.004,inactive: -0.014,inactive: -0.012
CETN3 (UniProt O15182),inactive: -0.048,inactive: 0.008,inactive: -0.105,inactive: 0.018,inactive: -0.028,inactive: 0.01,inactive: -0.028,inactive: -0.035,inactive: 0.003,inactive: 0.043,inactive: -0.007,inactive: -0.01,inactive: -0.052,inactive: -0.018,inactive: -0.216,inactive: 0.049,inactive: -0.027,inactive: 0.042,inactive: -0.042,inactive: 0.079

# Reprinted from the entries so far for reference:
Target,log2 fold change (vemurafenib),log2 fold change [1],log2 fold change (barasertib),log2 fold change [2],log2 fold change (volasertib),log2 fold change [3],log2 fold change [4],log2 fold change [5],log2 fold change (saracatinib),log2 fold change (sotrastaurin),log2 fold change (alvocidib),log2 fold change (Tubastatin A),log2 fold change [6],log2 fold change (defactinib),log2 fold change [7],log2 fold change (encorafenib),log2 fold change [8],log2 fold change (alisertib),log2 fold change [9],log2 fold change (gefitinib)
CEP350 (UniProt Q5VT06),inactive: -0.03,inactive: -0.009,inactive: 0.03,inactive: 0.008,inactive: -0.009,inactive: 0.041,inactive: 0.104,inactive: -0.025,inactive: 0.019,inactive: 0.051,inactive: -0.034,inactive: -0.077,inactive: 0.007,inactive: -0.029,inactive: -0.045,inactive: 0.049,inactive: -0.026,inactive: -0.002,inactive: -0.026,inactive: 0.078
CDC7 (UniProt O00311),inactive: 0.065,inactive: 0.073,inactive: -0.005,inactive: 0.039,inactive: -0.097,inactive: -0.003,inactive: -0.01,inactive: -0.073,inactive: 0.004,inactive: 0.036,inactive: -0.081,inactive: -0.112,inactive: 0.077,inactive: 0.007,inactive: 0.042,inactive: 0.011,inactive: 0.078,inactive: -0.059,inactive: -0.04,inactive: -0.036
